From the supplement of paper PMC4604168 (melanoma cell lines)
The list shows a part of the results. Single values are uncertain, as repeats are few or missing.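 Imaging used 1,536-well plates; nuclei positive for cleaved PARP by antibody were divided by total DNA-stained nuclei to yield the apoptosis fraction. Doses for screening kept most cells viable, and cell lines differ markedly in resting and induced cleaved-PARP levels.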

Each compound was assayed on CBRC034 (line from a melanoma biopsy) (assay: cleaved PARP positive nuclei fraction relative to DMSO control; melanoma cells; higher = more apoptosis). Conditions: library dose: low library concentration; 72 h.

| Compound | cleaved PARP positive nuclei fraction [%] |
| --- | --- |
| Cn1cncc1[C@@](N)(c1ccc(Cl)cc1)c1ccc2c(c1)c(-c1cccc(Cl)c1)cc(=O)n2C [tipifarnib] + c1cc(-c2cnn3cc(-c4ccc(OCCN5CCCCC5)cc4)cnc23)ccn1 [Dorsomorphin] (first compound 0.01 µM, partner dose 0.4 µM) | 92.7 |
| Cc1cc(N2CCOCC2)cc2[nH]c(-c3c(NC[C@@H](O)c4cccc(Cl)c4)cc[nH]c3=O)nc12 + Cn1cc(/C=C2\C(=O)Nc3cccnc32)c2ccccc21 [GW441756] (first compound 0.2 µM, partner dose 0.4 µM) | 94.2 |
| Cn1c(Nc2ccc(C(F)(F)F)cc2)nc2cc(Oc3ccnc(-c4ncc(C(F)(F)F)[nH]4)c3)ccc21 + Oc1nc(-c2ccc(C(F)(F)F)cc2)nc2c1CSCC2 [XAV939] (first compound 0.08 µM, partner dose 2 µM) | 129 |
| Cn1nnc2c(C(N)=O)ncn2c1=O [temozolomide] + CC(C)CCN1c2nc(Nc3cc(F)c(O)c(F)c3)ncc2N(C)C(=O)C1C [BID1870] (first compound 2 µM, partner dose 0.2 µM) | 124 |
| C[C@]1(c2nc3c(C(N)=O)cccc3[nH]2)CCCN1 [Veliparib] + O=C(O)C(=O)Nc1sc2c(c1C(=O)O)CCNC2 [TCS401] (first compound 1.4 µM, partner dose 1.66667 µM) | 77 |
| O=C(Nc1cccc(Cl)c1)Nc1ncc(CCNc2ncnc3ccsc23)s1 + COc1cc2ncnc(Nc3ccc(Oc4ccccc4)cc3)c2cc1OC [SrcI1] (first compound 0.0008 µM, partner dose 2 µM) | 103 |
| NC(=O)Nc1cc(-c2cccc(F)c2)sc1C(=O)N[C@H]1CCCNC1 + O=c1cc(-c2cccc3c2Sc2ccccc2S3)oc(N2CCOCC2)c1 [KU55933] (first compound 0.02 µM, partner dose 1 µM) | 88.5 |
| CC(C)(C)c1cnc(CSc2cnc(NC(=O)C3CCNCC3)s2)o1 + N#Cc1c(O)c2c(-c3ccc(-c4ccccc4O)cc3)csc2[nH]c1=O [A769662] (first compound 0.01 µM, partner dose 2 µM) | 45 |

The compounds below were run on COLO792 in the same assay as above. Conditions: library dose: low library concentration; 72 h.

| Compound | cleaved PARP positive nuclei fraction [%] |
| --- | --- |
| C=CCn1c(=O)c2cnc(Nc3ccc(N4CCN(C)CC4)cc3)nc2n1-c1cccc(C(C)(C)O)n1 + O=S(=O)(c1ccccc1)N(CC(F)(F)F)c1ccc(C(O)(C(F)(F)F)C(F)(F)F)cc1 [T0901317] (first compound 0.02 µM, partner dose 1.4 µM) | 32.7 |
| O=C(Nc1cccc(Cl)c1)Nc1ncc(CCNc2ncnc3ccsc23)s1 + COc1cc(N2CCC(N3CCN(C)CC3)CC2)ccc1Nc1ncc(Cl)c(Nc2ccccc2S(=O)(=O)C(C)C)n1 [NVP-TAE684] (first compound 0.0008 µM, partner dose 0.08 µM) | 87.3 |
| C[C@]1(c2nc3c(C(N)=O)cccc3[nH]2)CCCN1 [Veliparib] + COc1cc2ncnc(Nc3ccc(Oc4ccccc4)cc3)c2cc1OC [SrcI1] (first compound 1.4 µM, partner dose 2 µM) | 72.1 |
| Cn1c(Nc2ccc(C(F)(F)F)cc2)nc2cc(Oc3ccnc(-c4ncc(C(F)(F)F)[nH]4)c3)ccc21 + COc1ccc(COc2ccc(Cc3cnc(N)nc3N)cc2OC)cc1 [GW2580] (first compound 0.08 µM, partner dose 1 µM) | 461 |
| COCC[n+]1c2c(n(Cc3cnccn3)c1C)C(=O)c1ccccc1C2=O + COc1ccc(COc2ccc(Cc3cnc(N)nc3N)cc2OC)cc1 [GW2580] (first compound 0.0004 µM, partner dose 1 µM) | 58.5 |
| Cc1ccc(NC(=O)c2cccc(N(C)C)c2)cc1NC(=O)c1ccc(O)cc1 + COC(=O)c1sccc1S(=O)(=O)Nc1ccc(Nc2ccccc2)cc1OC [GSK0660] (first compound 2 µM, partner dose 1 µM) | 73.5 |
| COCC[n+]1c2c(n(Cc3cnccn3)c1C)C(=O)c1ccccc1C2=O + CC(C)CCN1c2nc(Nc3cc(F)c(O)c(F)c3)ncc2N(C)C(=O)C1C [BID1870] (first compound 0.0004 µM, partner dose 0.2 µM) | 168 |
| CC(C)(C)c1cnc(CSc2cnc(NC(=O)C3CCNCC3)s2)o1 + Cc1cc([N+](=O)[O-])ccc1NS(=O)(=O)c1cc(Cl)ccc1Cl [FH535] (first compound 0.01 µM, partner dose 1 µM) | 82.7 |
| Cc1ccc(NC(=O)c2cccc(N(C)C)c2)cc1NC(=O)c1ccc(O)cc1 + CCCCCCCCCCCC1=C(O)C(=O)C=C(O)C1=O [Embelin] (first compound 2 µM, partner dose 1.2 µM) | 106 |
| Cc1ccc(NC(=O)c2cccc(N(C)C)c2)cc1NC(=O)c1ccc(O)cc1 + COc1cc(N2CCC(N3CCN(C)CC3)CC2)ccc1Nc1ncc(Cl)c(Nc2ccccc2S(=O)(=O)C(C)C)n1 [NVP-TAE684] (first compound 2 µM, partner dose 0.08 µM) | 69.9 |
| Cn1cncc1[C@@](N)(c1ccc(Cl)cc1)c1ccc2c(c1)c(-c1cccc(Cl)c1)cc(=O)n2C [tipifarnib] + CCc1ccc(CCOc2ccc(CC3SC(=O)NC3=O)cc2)nc1 [pioglitazone] (first compound 0.01 µM, partner dose 2 µM) | 148 |
| O=C(CCCCCCC(=O)Nc1ccccc1)NO [vorinostat] + COc1cc(N2CCC(N3CCN(C)CC3)CC2)ccc1Nc1ncc(Cl)c(Nc2ccccc2S(=O)(=O)C(C)C)n1 [NVP-TAE684] (first compound 0.08 µM, partner dose 0.08 µM) | 123 |
| O=C(Nc1cccc(Cl)c1)Nc1ncc(CCNc2ncnc3ccsc23)s1 + COC(=O)c1sccc1S(=O)(=O)Nc1ccc(Nc2ccccc2)cc1OC [GSK0660] (first compound 0.0008 µM, partner dose 1 µM) | 98.7 |
| C=CCn1c(=O)c2cnc(Nc3ccc(N4CCN(C)CC4)cc3)nc2n1-c1cccc(C(C)(C)O)n1 + CC(C)CCN1c2nc(Nc3cc(F)c(O)c(F)c3)ncc2N(C)C(=O)C1C [BID1870] (first compound 0.02 µM, partner dose 0.2 µM) | 96.4 |
| CO[C@@H]1[C@H](N(C)C(=O)c2ccccc2)C[C@H]2O[C@]1(C)n1c3ccccc3c3c4c(c5c6ccccc6n2c5c31)C(=O)NC4 [Midostaurin] + O=S(=O)(c1ccccc1)N(CC(F)(F)F)c1ccc(C(O)(C(F)(F)F)C(F)(F)F)cc1 [T0901317] (first compound 0.08 µM, partner dose 1.4 µM) | 112 |
| Nc1cccc2c1CN(C1CCC(=O)NC1=O)C2=O (stereo not drawn) [lenalidomide] + COC(=O)c1sccc1S(=O)(=O)Nc1ccc(Nc2ccccc2)cc1OC [GSK0660] (first compound 1 µM, partner dose 1 µM) | 105 |
| O=C(Nc1cccc(Cl)c1)Nc1ncc(CCNc2ncnc3ccsc23)s1 + CCc1ccc(CCOc2ccc(CC3SC(=O)NC3=O)cc2)nc1 [pioglitazone] (first compound 0.0008 µM, partner dose 2 µM) | 70.3 |
| COCC[n+]1c2c(n(Cc3cnccn3)c1C)C(=O)c1ccccc1C2=O + O=c1cc(-c2cccc3c2Sc2ccccc2S3)oc(N2CCOCC2)c1 [KU55933] (first compound 0.0004 µM, partner dose 1 µM) | 98 |
| Nc1cccc2c1CN(C1CCC(=O)NC1=O)C2=O (stereo not drawn) [lenalidomide] + COc1ccc(-c2ccc3c(N4CCOCC4)nc(N4C[C@@H](C)O[C@@H](C)C4)nc3n2)cc1CO [KU0063794] (first compound 1 µM, partner dose 0.02 µM) | 128 |
| NC(=O)Nc1cc(-c2cccc(F)c2)sc1C(=O)N[C@H]1CCCNC1 + Cn1cc(/C=C2\C(=O)Nc3cccnc32)c2ccccc21 [GW441756] (first compound 0.02 µM, partner dose 0.4 µM) | 96.6 |
| COc1cc(Nc2ncc(F)c(Nc3ccc4c(n3)NC(=O)C(C)(C)O4)n2)cc(OC)c1OC [Tamatinib] + COc1cc(N2CCC(N3CCN(C)CC3)CC2)ccc1Nc1ncc(Cl)c(Nc2ccccc2S(=O)(=O)C(C)C)n1 [NVP-TAE684] (first compound 0.4 µM, partner dose 0.08 µM) | 245 |
| NC(=O)Nc1cc(-c2cccc(F)c2)sc1C(=O)N[C@H]1CCCNC1 + CCN(CC)CCCCNc1ncc2cc(-c3cc(OC)cc(OC)c3)c(NC(=O)NC(C)(C)C)nc2n1 [PD173074] (first compound 0.02 µM, partner dose 0.1 µM) | 84.6 |
| O=C(CCCCCCC(=O)Nc1ccccc1)NO [vorinostat] + CCCCCCCCCCCC1=C(O)C(=O)C=C(O)C1=O [Embelin] (first compound 0.08 µM, partner dose 1.2 µM) | 87 |
| O=C(Nc1cccc(Cl)c1)Nc1ncc(CCNc2ncnc3ccsc23)s1 + COc1ccc(-c2ccc3c(N4CCOCC4)nc(N4C[C@@H](C)O[C@@H](C)C4)nc3n2)cc1CO [KU0063794] (first compound 0.0008 µM, partner dose 0.02 µM) | 175 |
| Cc1nc(Nc2ncc(C(=O)Nc3c(C)cccc3Cl)s2)cc(N2CCN(CCO)CC2)n1 [dasatanib] + CCN(CC)CCCCNc1ncc2cc(-c3cc(OC)cc(OC)c3)c(NC(=O)NC(C)(C)C)nc2n1 [PD173074] (first compound 0.004 µM, partner dose 0.1 µM) | 159 |

As a working copy, some entries already given.

| Compound | cleaved PARP positive nuclei fraction [%] |
| --- | --- |
| Cn1cncc1[C@@](N)(c1ccc(Cl)cc1)c1ccc2c(c1)c(-c1cccc(Cl)c1)cc(=O)n2C [tipifarnib] + CCc1ccc(CCOc2ccc(CC3SC(=O)NC3=O)cc2)nc1 [pioglitazone] (first compound 0.01 µM, partner dose 2 µM) | 148 |
| O=C(CCCCCCC(=O)Nc1ccccc1)NO [vorinostat] + COc1cc(N2CCC(N3CCN(C)CC3)CC2)ccc1Nc1ncc(Cl)c(Nc2ccccc2S(=O)(=O)C(C)C)n1 [NVP-TAE684] (first compound 0.08 µM, partner dose 0.08 µM) | 123 |
